Results from paper PMC11442470.
These are yes or no findings as the source states them, for the method shown. Binding seen in cells or lysates may run through a third protein. These calls come from enrichment with a bait or labelling near it, and not all partners need be listed. Tags and fused reporters may be left off the sequences shown.

Chains of the proteins cited; added tags and fusions are not shown. Residues count along the entry.
UniProt D3Z7P3, residues 55-674: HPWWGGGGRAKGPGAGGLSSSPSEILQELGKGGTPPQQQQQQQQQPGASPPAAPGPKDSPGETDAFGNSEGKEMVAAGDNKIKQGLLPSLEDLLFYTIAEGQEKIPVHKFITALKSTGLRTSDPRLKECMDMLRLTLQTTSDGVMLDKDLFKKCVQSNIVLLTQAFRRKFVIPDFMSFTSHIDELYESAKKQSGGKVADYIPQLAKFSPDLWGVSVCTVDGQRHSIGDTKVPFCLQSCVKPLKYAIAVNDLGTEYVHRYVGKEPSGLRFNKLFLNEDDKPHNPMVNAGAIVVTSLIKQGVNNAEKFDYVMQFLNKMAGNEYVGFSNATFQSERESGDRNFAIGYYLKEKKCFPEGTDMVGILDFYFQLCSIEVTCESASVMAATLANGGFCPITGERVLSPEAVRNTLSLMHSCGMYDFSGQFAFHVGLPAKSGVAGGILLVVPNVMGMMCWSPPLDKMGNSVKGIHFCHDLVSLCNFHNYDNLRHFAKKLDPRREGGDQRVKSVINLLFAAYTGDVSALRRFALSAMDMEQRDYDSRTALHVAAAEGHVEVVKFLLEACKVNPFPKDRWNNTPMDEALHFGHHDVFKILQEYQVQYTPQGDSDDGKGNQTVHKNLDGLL

Molecular target: T1, chimera of APEX2 fused to the CT of PDZD8 (human) (UniProt Q8NEN9)
T1 sequence: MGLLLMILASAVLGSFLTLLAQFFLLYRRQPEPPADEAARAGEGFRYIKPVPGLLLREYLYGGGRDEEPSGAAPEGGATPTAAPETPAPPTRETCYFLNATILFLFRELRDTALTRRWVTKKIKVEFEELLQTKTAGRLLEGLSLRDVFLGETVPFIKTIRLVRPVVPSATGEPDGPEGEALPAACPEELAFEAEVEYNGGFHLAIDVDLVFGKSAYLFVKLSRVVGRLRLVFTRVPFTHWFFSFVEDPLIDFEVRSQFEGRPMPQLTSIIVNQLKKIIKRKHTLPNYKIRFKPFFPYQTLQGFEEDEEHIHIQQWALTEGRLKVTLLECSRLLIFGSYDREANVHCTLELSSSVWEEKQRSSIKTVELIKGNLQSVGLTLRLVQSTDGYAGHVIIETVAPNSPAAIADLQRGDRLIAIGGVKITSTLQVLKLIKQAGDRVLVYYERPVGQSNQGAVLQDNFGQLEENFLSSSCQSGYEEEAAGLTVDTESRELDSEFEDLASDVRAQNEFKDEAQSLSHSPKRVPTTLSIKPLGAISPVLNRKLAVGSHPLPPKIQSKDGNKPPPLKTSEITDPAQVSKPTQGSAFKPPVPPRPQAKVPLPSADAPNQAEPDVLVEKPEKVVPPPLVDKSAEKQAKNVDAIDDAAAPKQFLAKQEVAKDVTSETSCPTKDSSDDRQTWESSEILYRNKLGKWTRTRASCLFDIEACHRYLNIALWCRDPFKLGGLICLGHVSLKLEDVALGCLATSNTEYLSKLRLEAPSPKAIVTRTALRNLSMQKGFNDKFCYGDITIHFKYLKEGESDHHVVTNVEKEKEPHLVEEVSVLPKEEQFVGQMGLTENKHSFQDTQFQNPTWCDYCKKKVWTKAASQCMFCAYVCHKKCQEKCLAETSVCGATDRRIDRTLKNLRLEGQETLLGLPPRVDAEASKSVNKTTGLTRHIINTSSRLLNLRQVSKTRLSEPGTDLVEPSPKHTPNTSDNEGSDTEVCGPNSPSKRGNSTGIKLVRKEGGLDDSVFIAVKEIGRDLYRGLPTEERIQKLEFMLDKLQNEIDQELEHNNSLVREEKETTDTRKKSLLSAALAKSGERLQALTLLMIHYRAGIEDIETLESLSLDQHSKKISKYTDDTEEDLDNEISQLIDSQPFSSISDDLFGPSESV
Assay: proximity labelling; APEX2 labelling in MEFs stably expressing APEX2-PDZD8 (biotinyl tyramide 30 min, 1 mM H2O2 1 min), subcellular fractionation (IMM, matrix), streptavidin beads, blot for GLS1; starved or unstarved cells; GLS1 hardly biotinylated in the matrix fraction

“glutaminase 1 (GLS1; both KGA and GAC), endogenous in MEFs (from UniProt D3Z7P3 55-674) (enzyme)” was tested. Which binding did it give?
The binding was “binds”.
